Literature values as cited in publication PMC5499624 (Biomolecules & Therapeutics, 2017).

Settings: ref Wu et al., 1997; cited from earlier work

For `CN1CC[C@]23c4c5ccc(O)c4O[C@H]2[C@@H](O)C=C[C@H]3[C@H]1C5` [morphine], the Brain uptake is listed as 0.0810 ± 0.0005 %ID/g.
